No constants are given. Whether binding was seen depends on the method and setting. Some entries that bind do so weakly or less than the wild type.

Our source for the binding values is patent US20220185876A1 (ATARGA, published 2022).

The target in experiment [1] is T1, human FGF23 (human, UniProt Q9GZV9 25-251).
T1 sequence: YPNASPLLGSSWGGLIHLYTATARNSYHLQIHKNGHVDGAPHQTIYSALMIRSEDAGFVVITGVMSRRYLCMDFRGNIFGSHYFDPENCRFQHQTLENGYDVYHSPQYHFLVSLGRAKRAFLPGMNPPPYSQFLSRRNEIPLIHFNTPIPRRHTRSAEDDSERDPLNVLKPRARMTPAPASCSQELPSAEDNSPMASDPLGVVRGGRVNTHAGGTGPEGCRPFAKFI
The experiment in a line: ELISA binding to human FGF23.

Experiment [2] addresses T1, human FGF23. The experiment is described as follows: ELISA binding to human FGF23 (FIG. 2A).
Experiment [3] addresses T1, human FGF23. The experiment in a line: ELISA binding to human FGF23 (FIG. 2B).

B1: ExA11 (antibody, V domains shown)
VH: QVQLVQSGAELKKPGASVKVSCKASGYTFTNHYMHWVRQAPGQGLEWMGIINPISGSTTYAQKFQGRVTMTRDTSSSTAYMDLSRLTSDDTAVYYCARDIVDAFDFWGQGTTVTVSS
VL: AIQLTQSPSSLSASVGDRVTITCRASQGISSALVWYQQKPGQAPRLLIYDASSLESGIPARFSGSGSGTDFTLTISSLEPEDFAVYYCQQFNDYFTFGQGTKLEIK
notes: Monoclonal anti-FGF23 antibody
Take B1: the binding result in experiment [1] and in experiment [2] was “binds” in each case.

B2: ExA35 (antibody, V domains shown)
VH: QVQLLESGAVLARPGTSVKISCKASGYTFTNHYMHWVKQRPGQGLEWIGIINPITGSSSNAQKFQGRVTITRDTSTSTVFMELSSLRSEDTAVYYCARDIVDAFDFWGQGTLVTVSS
VL: AIQLTQSPSSLSASVGDRVTITCRASQGISSALVWYQQKPGQAPRLLIYDASSLESGIPARFSGSGSGTDFTLTISSLEPEDFAVYYCQQFNDYFTFGQGTKLEIK
notes: as for B1
Consider B2, for which the binding result in experiment [1] and in experiment [2] was “binds” in each case.

B3: ExC50 (antibody, V domains shown)
VH: QVQLLESGAVLARPGTSVKISCKASGYSFTNHYMHWVKQRPGQGLEWIGIINPITGSSSNAQKFQGRVTITRDTSTSTVFMELSSLRSEDTAVYYCARDLVDAFDFWGQGTLVTVSS
VL: DIQLTQSPSSLSASVGDRVTITCRASQGISSALVWYQQKPGQAPRLLIYDASSLQSGIPARFSGSGSGTDFTLTISSLEPEDFAVYYCQQFNDYFTFGQGTKLEIK
notes: as for B1
For B3, the binding result in experiment [1] and in experiment [2] was “binds” in each case.

B4: Exc23 (antibody, V domains shown)
VH: EVQLVQSGAEVRKPGASVKVSCKASGYTFTNHYMHWVRQAPGQGLEWMGIINPISGSTSNAQKLQGRVTFTRDTSANTAYMELSGLIPEDTAIYYCARDIVDAFDFWGQGTLVTVSS
VL: DIQMTQSPSSLSASVGDRVTITCKASQGISSALVWYQQKPGKAPKLLIYDASSLQTGVPSRFSGSGSGTDFTFTISSLQPEDIATYYCQQFNDYFSFGPGTKLEIK
notes: as for B1
As for B4, the binding entry in experiment [1] and in experiment [3] was “binds” throughout.

B5: ExC17 (antibody, V domains shown)
VH: EVQLVQSGAEVRKPGASVKVSCKASGYTFTNHYMHWVRQAPGQGLEWMGIINPISGSTSNAQKLQGRVTFTRDTSANTAYMELSGLIPEDTAIYYCARDIVDAFDFWGQGTLVTVSS
VL: DIQLTQSPSSLSASVGDRVTITCRASQGISSALVWYQQKPGQAPRLLIYDASSLQSGIPARFSGSGSGTDFTLTISSLEPEDFAVYYCQQFNDLFTFGQGTKLEIK
notes: as for B1
Turning to B5, the binding result in experiment [1] and in experiment [2] was “binds” each time.

B6: ExA43 (antibody, V domains shown)
VH: EVQLVQSGAEVRKPGASVKVSCKASGYTFTNHYMHWVRQAPGQGLEWMGIINPISGSTSNAQKLQGRVTFTRDTSANTAYMELSGLIPEDTAIYYCAREIVDAFDFWGQGTLVTVSS
VL: AIQLTQSPSSLSASVGDRVTITCRASQGISSALVWYQQKPGQAPRLLIYDASSLESGIPARFSGSGSGTDFTLTISSLEPEDFAVYYCQQFNDYFTFGQGTKLEIK
notes: as for B1
B6: the binding entry in experiment [1] and in experiment [2] was “binds” in each case.

B7: ExA60 (antibody, V domains shown)
VH: EVQLVQSGAEVRKPGASVKVSCKASGYSFTNHYMHWVRQAPGQGLEWMGIINPNSGSTSNAQKLQGRVTFTRDTSANTAYMELSGLIPEDTAIYYCARDIVDAFDYWGQGTLVTVSS
VL: AIQMTQSPSSLSASVGDRVTITCRASQGISSALVWYQQKPGKAPKLLIYDASSLESGVPSRFSGSGSGTDFTFTISSLQPEDIATYYCQQFNDYFTFGPGTKLEIK
notes: as for B1
Consider B7, for which the binding result in experiment [1] and in experiment [2] was “binds” throughout.

B8: Exc23.1 (antibody, V domains shown)
VH: EVQLVQSGAEVRKPGASVKVSCKASGYTFTNHYMHWVRQAPGQGLEWMGIINPISGSTSNAQKLQGRVTFTRDTSANTAYMELSGLIPEDTAIYYCARDIVDAFDFWGQGTLVTVSS
VL: DIQMTQSPSSLSASVGDRVTITCKASQGISSALVWYQQKPGKAPKLLIYDASSLETGVPSRFSGSGSGTDFTFTISSLQPEDIATYYCQQFNDYFSFGPGTKLEIK
notes: as for B1
Consider B8, for which the binding result in experiment [1] and in experiment [3] was “binds” in each case.

B9: Exc23.2 (antibody, V domains shown)
VH: EVQLVQSGAEVRKPGASVKVSCKASGYTFTNHYMHWVRQAPGQGLEWMGIINPISGSTSNAQKLQGRVTFTRDTSANTAYMELSGLIPEDTAIYYCARDIVDAFDFWGQGTLVTVSS
VL: DIQMTQSPSSLSASVGDRVTITCKASQGISSALVWYQQKPGKAPKLLIYDASSLQSGVPSRFSGSGSGTDFTFTISSLQPEDIATYYCQQFNDYFSFGPGTKLEIK
notes: as for B1
Regarding B9, the binding entry in experiment [1] and in experiment [3] was “binds” throughout.

B10: Exc23.3 (antibody, V domains shown)
VH: EVQLVQSGAEVRKPGASVKVSCKASGYTFTNHYMHWVRQAPGQGLEWMGIINPISGSTSNAQKLQGRVTFTRDTSANTAYMELSGLIPEDTAIYYCARDIVDAFDFWGQGTLVTVSS
VL: DIQMTQSPSSLSASVGDRVTITCKASQGISSALVWYQQKPGKAPKLLIYDASSLQTGVPSRFSGSGSGTDFTFTISSLQPEDIATYYCQQFNDYFTFGPGTKLEIK
notes: as for B1
B10: the binding entry in experiment [1] and in experiment [3] was “binds” throughout.

B11: ExA28 (antibody, V domains shown)
VH: EVQLVQSGAEVRKPGASVKVSCKASGYTFTNHYMHWVRQAPGQGLEWMGIINPISGSTSNAQKLQGRVTFTRDTSANTAYMELSGLIPEDTAIYYCARDIVDAFDFWGQGTLVTVSS
VL: AIQMTQSPSSLSASVGDRVTITCRASQGISSALVWYQQKPGKAPKLLIYDASSLESGVPSRFSGSGSGTDFTFTISSLQPEDIATYYCQQFNDYFTFGPGTKLEIK
notes: as for B1
As for B11, the binding entry in experiment [1] and in experiment [2] was “binds” each time.

B12: Exc23.4 (antibody, V domains shown)
VH: EVQLVQSGAEVRKPGASVKVSCKASGYTFTNHYMHWVRQAPGQGLEWMGIINPISGSTSNAQKLQGRVTFTRDTSANTAYMELSGLIPEDTAIYYCARDIVDAFDFWGQGTLVTVSS
VL: DIQMTQSPSSLSASVGDRVTITCRASQGISSALVWYQQKPGKAPKLLIYDASSLQTGVPSRFSGSGSGTDFTFTISSLQPEDIATYYCQQFNDYFSFGPGTKLEIK
notes: as for B1
Turning to B12, the binding result in experiment [1] and in experiment [3] was “binds” each time.

B13: Exc23.5 (antibody, V domains shown)
VH: EVQLVQSGAEVRKPGASVKVSCKASGYTFTNHYMHWVRQAPGQGLEWMGIINPISGSTSNAQKLQGRVTFTRDTSANTAYMELSGLIPEDTAIYYCARDIVDAFDFWGQGTLVTVSS
VL: AIQMTQSPSSLSASVGDRVTITCKASQGISSALVWYQQKPGKAPKLLIYDASSLQTGVPSRFSGSGSGTDFTFTISSLQPEDIATYYCQQFNDYFSFGPGTKLEIK
notes: as for B1
As for B13, the binding result in experiment [1] and in experiment [3] was “binds” in each case.
